This assay is described as follows: qHTS Assay for Lipid Storage Modulators in Drosophila S3 Cells.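 On cell number change: cells counted by Cell Tracker Red CMTPX staining in the red channel.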 As to conditions: BODIPY lipid droplet fluorescence, 18-24 h; for cell number change: measured here: cell count max response, cells fed with added oleic acid. The essentials:
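Drosophila S3 cells loaded with oleic acid (400 uM, as added) and compounds at several concentrations; lipid droplets imaged by 488-nm laser-scanning cytometry, 500–530 nm intensity and object ratio to cell channel. Percent activity normalized to 20 uM Triacsin C.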
For orientation: Quantitative high-throughput screening tests each substance at several concentrations.

Where [1] appears, read: measured here: cell number channel AC50, cells fed with added oleic acid.
Setting [2] is: measured here: lipid fluorescence (Fed channel) AC50, cells fed with added oleic acid.

The source of these data is PubChem BioAssay AID2685 (National Center for Advancing Translational Sciences (NCATS), 2010).

Where “and” joins values, the source holds several entries; their conditions need not be identical. Equal entries are not always repeated. This is one part of the list. Shown are side measurements of this screen, not its main read-out; they come without a call. The list favours compounds with an active or inconclusive main result. Potencies come from curve fits of mixed quality, noted in brackets.

A word on the AC50: it is the midpoint of the concentration-response curve, whichever way the signal moves. Higher therefore signals activity only at high concentration. With `COc1ccc(C2=C(CN(C)C)C(c3ccccc3)c3ccccc3O2)cc1` (centres undefined), the cell number change was -39.4% and -157%. Moreover, the half-maximal activity concentration (AC50) under setting [1] was 5.17 µM [falling, full curve]. The AC50 under setting [2] was 14.6 µM [falling, partial curve] and 29.1 µM [falling, single point].

Turning to `CN1CCN(c2nc3c(c(=O)[nH]c(=O)n3C)n2Cc2cccc3ccccc23)CC1`, the cell number change is 43.8%. Further, under setting [1], the AC50 was 20.6 µM [rising, single point]. Besides, the half-maximal activity concentration (AC50) under setting [2] was 6.51 µM [falling, single point].

Consider `COC(=O)[C@@H]1CCCN1Cc1nc(Cc2ccc(OC)c(OC)c2)no1`, for which the cell number change stood at 20.4%. For the same compound, the AC50 under setting [2] was 29.1 µM [rising, single point].

On to `CCN(CC)S(=O)(=O)c1ccc2c(c1)c(=O)c(C(=O)NCCCN(C)c1ccccc1)cn2C`, for which the cell number change turned out to be 14.1%. The AC50 under setting [2] was 2.31 µM [rising, full curve, poor fit].

Consider `Cc1ccc(NC(=O)Nc2cnc3ccccc3c2)cc1`, for which the cell number change is -27.7%.

Regarding `CCN(CC)C(=O)Cn1cc(SCC(=O)NCc2ccco2)c2ccccc21`, the cell number change is -12.9%. For the same compound, the concentration at half-maximal activity (AC50) under setting [1] was 0.82 µM [falling, single point].

Turning to `N=C1S/C(=C\c2ccc(-c3ccccc3C(=O)O)o2)C(=O)N1c1ccc2c(c1)OCO2`, the cell number change was -30%. For the same compound, under setting [1], the half-maximal activity concentration (AC50) is 29.1 µM [falling, single point]. Further, the AC50 under setting [2] is 29.1 µM [falling, single point].

In the case of `Brc1ccc(CNc2cc3c(cc2Br)OCCO3)cc1`, the half-maximal activity concentration (AC50) under setting [1] was 0.461 µM [rising, single point].

Regarding `Cc1ccc(-c2csc3nnc(SCC(=O)N4CCN(Cc5ccccc5)CC4)n23)cc1`, the cell number change is -12.1%. Besides, the AC50 under setting [2] was 4.61 µM [rising, partial curve].

In the case of `O=C(Nc1nnc(COc2ccccc2)s1)C1CCN(S(=O)(=O)c2ccc(Cl)cc2)CC1`, the cell number change was -49.6%. Moreover, the half-maximal activity concentration (AC50) under setting [1] is 13 µM [falling, partial curve, poor fit]. Besides, the AC50 under setting [2] is 5.8 µM [falling, single point].

As for `Cc1ccc(N(C)S(=O)(=O)c2cccc(C(=O)Nc3nnc(C4CC4)s3)c2)cc1`, the cell number change stood at 19.1%. The AC50 under setting [1] is 4.61 µM [rising, single point].

As for `CC(C)(C)c1cc(=O)[nH]c(SCc2ccccc2)n1`, the cell number change was -16.3%. Moreover, the half-maximal activity concentration (AC50) under setting [1] is 0.82 µM [falling, single point].

On to `COc1cc(C(=O)NCC2CCCO2)ccc1OCc1c(C)noc1C` (centres undefined), for which the AC50 by setting is: under setting [1], 5.8 µM [falling, single point]; under setting [2], 6.51 µM [falling, partial curve].

Regarding `Cc1ccc(CCNC(=O)c2ccc(CS(=O)(=O)Cc3ccccc3F)o2)cc1`, the AC50 under setting [2] is 4.11 µM [falling, partial curve].

As to `COc1ccccc1NC(=O)Nc1nc(CC(=O)Nc2ccccc2F)cs1`, the cell number change is -9.94%. The AC50 under setting [2] is 29.1 µM [falling, single point].

`CC(C)c1ccc(NC(=O)COC(=O)/C=C/c2cccc([N+](=O)[O-])c2)cc1`: the cell number change was found to be 15.5%. In addition, under setting [2], the concentration at half-maximal activity (AC50) was 20.6 µM [rising, single point].

As to `COc1ccc(NC(=O)CN2CCN(S(=O)(=O)c3ccc(Cl)cc3)CC2)cc1Cl`, the cell number change was -20.1%.

For the compound `COc1cccc(N2CCN(C(=O)c3ccc(CS(=O)c4ccc(Cl)cc4)o3)CC2)c1` (centres undefined), the cell number change was 0.295%.

With `O=C1C2N=NN(CC(=O)N3N=C(c4ccccc4)CC3c3ccc([N+](=O)[O-])cc3)C2C(=O)N1c1ccccc1` (centres undefined), the cell number change turned out to be 146%. Moreover, under setting [1], the AC50 is 29.1 µM [rising, single point].

For `COc1ccc(OC)c(NC(=O)CCS(=O)(=O)c2cc3c(cc2C)NC(=O)CO3)c1`, the cell number change is -23.9%. Under setting [2], the AC50 was 0.58 µM [falling, single point].

With `CCc1ccccc1N(CC(=O)N1CCN(c2ccccc2)CC1)S(C)(=O)=O`, the cell number change was -7.85%. The AC50 under setting [2] is 3.66 µM [rising, single point].

Regarding `COC(=O)C1=CN(C2CC2)C=C(C(=O)OC)C1c1ccc(C(=O)OC)cc1`, the cell number change worked out at 4.74%. Further, under setting [2], the AC50 was 0.116 µM [falling, single point].

In the case of `COc1ccccc1OCc1nc(Cc2ccc(Cl)cc2)no1`, the cell number change was -9.69%. Further, the AC50 under setting [2] was 29.1 µM [rising, single point].

Consider `COc1ccc2c(c1OC)C(=O)N(c1cccc(C)c1)C2`, for which the cell number change was -36.9%. Further, the half-maximal activity concentration (AC50) under setting [1] is 14.6 µM [falling, partial curve]. Moreover, under setting [2], the AC50 was 0.092 µM [falling, full curve, poor fit].

Turning to `CCOC(=O)Cn1nc(C)c(NC(=O)c2cccc([N+](=O)[O-])c2)c1C`, the cell number change was -13.4%. The concentration at half-maximal activity (AC50) under setting [2] is 4.61 µM [falling, single point].

In the case of `CCc1ccc(NC(=O)NNC(=O)c2cc3ccccc3cc2O)cc1`, the cell number change worked out at 33.7%.

With `O=C(CCNC(=O)c1ccc([N+](=O)[O-])cc1)Nc1ccc(F)cc1`, the cell number change amounted to 1.8%.

Consider `Cc1ccc(S(=O)(=O)NC(C)C(=O)NC(C)c2cccs2)cc1` (centres undefined), for which the cell number change is -19.8%. In addition, the half-maximal activity concentration (AC50) under setting [2] was 13 µM [rising, partial curve].

As for `O=C(Nc1ccc(CN2CCOCC2)cc1)c1cccc(-c2cc3ccccc3oc2=O)c1`, the cell number change was 4.59%.

Consider `CCc1cc2ccc(C)cc2nc1SCC(=O)NC1CCCC1`, for which the cell number change came to 3.85%.

Take `CC1Cc2ccccc2N1NC(=O)c1ccc(Cl)c(S(N)(=O)=O)c1` (centres undefined): the cell number change is -20.6%. Further, the AC50 under setting [2] was 7.31 µM [falling, partial curve, poor fit].

Take `COC(=O)c1cnc(Oc2c(Cl)cc(N)cc2Cl)cc1C(F)(F)F`: the cell number change is -29.3%. Also, the AC50 under setting [2] was 32.6 µM [falling, single point].

Consider `CCOc1ccccc1C1CC(=O)Nc2cc(C)c(C)cc21` (centres undefined), for which the cell number change was -8.39%. Moreover, under setting [2], the AC50 is 29.1 µM [falling, single point].

In the case of `S=c1[nH]nc(-c2ccncc2)n1Cc1ccco1`, the cell number change is -4.15%.

As to `O=C(Cn1nc(-c2ccc(Cl)cc2)ccc1=O)NCc1ccc2c(c1)OCO2`, under setting [1], the AC50 was 0.58 µM [rising, single point].

As to `CCCC(=O)Nc1nnc(Cc2ccccc2)s1`, the AC50 under setting [1] was 0.731 µM [rising, full curve, poor fit].

As for `CNC(=O)c1sccc1S(=O)(=O)Cc1c(Cl)cccc1Cl`, under setting [2], the concentration at half-maximal activity (AC50) was 0.00461 µM [rising, full curve, poor fit].

On to `COc1cc(/C=N\NC(=O)CNC(=O)c2cccc([N+](=O)[O-])c2)ccc1O`, for which the cell number change is -11.3%. For the same compound, under setting [1], the concentration at half-maximal activity (AC50) is 6.51 µM [falling, single point].

Consider `O=C(C1CC1c1ccccc1)N1CCN(c2cccc(Cl)c2)CC1` (centres undefined), for which the cell number change amounted to 4.88%. The AC50 under setting [2] was 0.92 µM [falling, full curve, poor fit].

In the case of `COc1ccc(-n2nnnc2SCC(=O)NC2CCCC2)cc1OC`, the cell number change was -21.1%.

On to `CC(C)CCN(C(=O)C1CCCC1)c1c(N)n(Cc2ccccc2)c(=O)[nH]c1=O`, for which the cell number change is 4.82%. For the same compound, the AC50 under setting [2] was 0.731 µM [rising, single point].

Regarding `COc1ccccc1C(=O)NC(=O)COC(=O)CNC(=O)c1ccccc1`, the cell number change stood at 75%. For the same compound, under setting [1], the AC50 was 29.1 µM [rising, single point].

In the case of `Cn1c(SCC(=O)c2ccccc2)nnc1-c1ccccn1`, the cell number change amounted to 28.7%. Besides, under setting [2], the AC50 was 20.6 µM [rising, single point].

With `COc1ccc(-n2nc3c(c2NC(=O)COc2ccccc2)CS(=O)C3)cc1` (centres undefined), the cell number change came out at 15%. For the same compound, the AC50 under setting [2] is 0.731 µM [rising, partial curve, poor fit].

For the compound `Nc1ccc(-n2ccnc2)cc1`, the cell number change amounted to 13.2%. The concentration at half-maximal activity (AC50) under setting [2] is 29.1 µM [rising, single point].

For the compound `COc1ccc(CNc2ccc(S(=O)(=O)N3CCN(C)CC3)cn2)cc1OC`, the cell number change is -42.7%. Besides, the AC50 under setting [1] was 0.164 µM [falling, full curve]. Moreover, under setting [2], the concentration at half-maximal activity (AC50) was 0.231 µM [falling, full curve].

`CCN(CC)CCNC(=O)Cn1nc(-c2ccccc2)c2ccccc2c1=O`: the cell number change is -20.3%. Moreover, the AC50 under setting [1] is 0.13 µM [falling, full curve, poor fit]. For the same compound, the concentration at half-maximal activity (AC50) under setting [2] was 3.66 µM [falling, full curve].

With `COCCCNC(=O)CSC1=Nc2ccccc2C2=NC(CC(=O)NCc3ccccc3)C(=O)N12` (centres undefined), the cell number change was -26.6%. The AC50 under setting [2] was 29.1 µM [falling, single point].

With `COCC(C)n1c(SCC(=O)NCCC2=CCCCC2)nc2ccccc2c1=O` (centres undefined), the cell number change came to 30%. Also, the AC50 under setting [2] was 0.259 µM [falling, partial curve, poor fit].

Regarding `Cc1ccsc1C(=O)Nc1ccc(F)c([N+](=O)[O-])c1`, the cell number change is 59.4%. Moreover, the half-maximal activity concentration (AC50) under setting [1] is 29.1 µM [rising, partial curve, poor fit].

For `Cc1cc(C(=O)NCCN2CCOCC2)ccc1[N+](=O)[O-]`, the cell number change was -7.8%.

For the compound `O=C(c1ccccc1Cl)N1CCC(n2cccc2)CC1`, the cell number change stood at 21.3%. The AC50 under setting [1] is 0.259 µM [falling, full curve]. Moreover, the concentration at half-maximal activity (AC50) under setting [2] was 0.231 µM [falling, full curve].

For `COc1ccc(N2C(=O)C3CCCN3C2c2ccc(C)o2)cc1` (centres undefined), the cell number change stood at 25.9%. Under setting [2], the AC50 was 2.06 µM [rising, partial curve, poor fit].

Take `Cc1ccc(NC(=O)/C=C/c2cccs2)c([N+](=O)[O-])c1`: the cell number change is -1.67%. Moreover, the concentration at half-maximal activity (AC50) under setting [1] is 6.51 µM [falling, single point]. Also, the AC50 under setting [2] is 6.51 µM [falling, single point].

`CCCCCCCCCOC(=O)C(CC(=O)O)N1CCOCC1` (centres undefined): the cell number change was determined as 29%. Further, under setting [2], the AC50 was 0.58 µM [falling, single point].

Turning to `CCNCCC(=O)N1c2ccccc2Sc2ccc(C(F)(F)F)cc21`, the cell number change was -1.82%.

For the compound `COc1ccc(CNC(=O)C/C(C)=N/NC(=O)c2ccc(OC)cc2OC)cc1`, the cell number change is -5.71%. Further, the AC50 under setting [2] was 29.1 µM [rising, single point].

In the case of `CCOc1ccc(CSC2=NCCN2)cc1Cl`, the cell number change was -20.7%. In addition, the AC50 under setting [1] is 3.66 µM [falling, partial curve].

Consider `Cc1cccc(Oc2ccc(S(=O)(=O)N3CCCCC3)cc2N)c1`, for which the cell number change worked out at 56.6%. Further, the AC50 under setting [1] is 8.2 µM [rising, partial curve].

For `CSc1nc(O)c(C(c2cccc([N+](=O)[O-])c2)c2c(O)nc(SC)[nH]c2=O)c(=O)[nH]1`, the cell number change was -52%. Moreover, the AC50 under setting [1] was 25.9 µM [falling, partial curve]. Further, under setting [2], the concentration at half-maximal activity (AC50) is 29.1 µM [falling, single point].
